At least one structure is not confirmed: it was looked up by name or label, or the drawing left a doubt.
Test system: liver cancer cell line
Experiment: VEGFR2 inhibitors in combination with the SGLT1 inhibitor on the liver cancer cell line (Example 2)
Format: cell-based
Settings: combined with SGLT1 inhibitor sotagliflozin, FIG. 11-1 to 11-30
Experimental: Dimethyl sulfoxide (DMSO) can dissolve formazan in cells, and its light absorption value measured at 570 nm wavelength with an enzyme-linked immunodetector can indirectly reflect the number of living cells. Cell growth was determined by 3-(4,5-dimethylthiazol-2-yl)-2,5-diphenyltetrazolium bromide (MTT) assay in a 96-well plate. Specifically, the cells were digested and counted, and then resuspended into a system containing 5000 cells per 200 μL of culture medium and seeded in each well of a 96-well plate. The next day, the medium was replaced with a medium containing different concentrations of sotagliflozin, apatinib, lenvatinib, and the composition of them. After 48 or 72 hours of incubation with the drugs, 20 μL of MTT reagent was added to each well and incubated for 2 hours. After discarding the medium, the formazan deposit in the cells was dissolved in 100 μL of DMSO. The absorbance was measured at 570 nm by a microplate reader. Samples were used in quadruplicate in each group.

Cc1ccc(C(=O)Nc2ccc(CN3CCN(C)CC3)c(C(F)(F)F)c2)cc1C#Cc1cnc2cccnn12 [ponatinib]
tumor suppressive effect in combination with the SGLT1 inhibitor compared with single agent: better tumor suppressive effect than as a single agent

Source: patent US12029776B2, “Composition for treating cancer and use and medicament thereof” (NEWISH TECHNOLOGY (BEIJING) CO., LTD., priority 2020, dated 2024)
